Test results published in patent EP2585123B1 (Planton GmbH, dated 2014).
Results are given in words; binding and its absence hold for the method and conditions named. Some results given as binding are weak or reduced against the parent protein; the word gives no strength.

By UniProt entry, the sequences of proteins in these tests, tags left out. Where a name states a change or a piece, a line headed by the entry shows the natural chain unless it says otherwise.
UniProt P02453: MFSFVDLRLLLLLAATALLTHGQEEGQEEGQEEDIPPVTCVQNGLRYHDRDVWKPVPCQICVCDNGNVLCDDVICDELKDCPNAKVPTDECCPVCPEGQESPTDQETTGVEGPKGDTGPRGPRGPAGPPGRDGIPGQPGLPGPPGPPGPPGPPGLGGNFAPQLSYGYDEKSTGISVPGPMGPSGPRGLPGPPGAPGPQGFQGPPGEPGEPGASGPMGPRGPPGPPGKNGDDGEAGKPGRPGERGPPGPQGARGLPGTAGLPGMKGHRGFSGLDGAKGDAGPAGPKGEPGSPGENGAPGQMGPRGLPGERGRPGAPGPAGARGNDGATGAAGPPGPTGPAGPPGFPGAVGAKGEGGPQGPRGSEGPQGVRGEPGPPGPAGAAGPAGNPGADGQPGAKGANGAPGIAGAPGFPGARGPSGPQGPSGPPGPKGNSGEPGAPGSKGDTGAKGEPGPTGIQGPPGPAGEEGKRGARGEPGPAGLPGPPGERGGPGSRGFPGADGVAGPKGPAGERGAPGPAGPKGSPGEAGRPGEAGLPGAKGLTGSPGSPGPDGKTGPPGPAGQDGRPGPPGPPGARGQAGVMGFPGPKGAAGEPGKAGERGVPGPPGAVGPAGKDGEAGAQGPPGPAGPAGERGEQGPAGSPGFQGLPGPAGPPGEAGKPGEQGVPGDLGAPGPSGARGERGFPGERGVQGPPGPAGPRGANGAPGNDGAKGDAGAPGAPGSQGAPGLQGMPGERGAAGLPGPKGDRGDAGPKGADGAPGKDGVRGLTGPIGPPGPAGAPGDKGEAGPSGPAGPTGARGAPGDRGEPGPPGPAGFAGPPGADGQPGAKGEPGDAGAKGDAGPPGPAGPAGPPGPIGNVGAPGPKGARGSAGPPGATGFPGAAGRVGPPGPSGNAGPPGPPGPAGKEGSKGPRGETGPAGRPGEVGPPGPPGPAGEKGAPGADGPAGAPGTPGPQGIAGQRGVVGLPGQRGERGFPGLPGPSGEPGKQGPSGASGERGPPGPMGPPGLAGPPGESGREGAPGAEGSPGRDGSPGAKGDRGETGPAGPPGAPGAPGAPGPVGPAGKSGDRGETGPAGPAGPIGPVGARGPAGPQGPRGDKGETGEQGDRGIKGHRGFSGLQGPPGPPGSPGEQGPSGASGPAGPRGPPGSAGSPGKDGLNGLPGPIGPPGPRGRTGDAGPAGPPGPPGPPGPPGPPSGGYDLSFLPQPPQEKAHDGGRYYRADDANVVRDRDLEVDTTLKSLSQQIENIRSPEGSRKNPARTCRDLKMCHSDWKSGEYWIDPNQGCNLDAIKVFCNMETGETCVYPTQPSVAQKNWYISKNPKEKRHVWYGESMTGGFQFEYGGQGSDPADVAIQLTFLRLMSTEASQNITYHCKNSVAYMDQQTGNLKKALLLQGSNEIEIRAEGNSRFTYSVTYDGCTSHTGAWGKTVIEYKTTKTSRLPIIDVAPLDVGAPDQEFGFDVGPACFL
UniProt P02465: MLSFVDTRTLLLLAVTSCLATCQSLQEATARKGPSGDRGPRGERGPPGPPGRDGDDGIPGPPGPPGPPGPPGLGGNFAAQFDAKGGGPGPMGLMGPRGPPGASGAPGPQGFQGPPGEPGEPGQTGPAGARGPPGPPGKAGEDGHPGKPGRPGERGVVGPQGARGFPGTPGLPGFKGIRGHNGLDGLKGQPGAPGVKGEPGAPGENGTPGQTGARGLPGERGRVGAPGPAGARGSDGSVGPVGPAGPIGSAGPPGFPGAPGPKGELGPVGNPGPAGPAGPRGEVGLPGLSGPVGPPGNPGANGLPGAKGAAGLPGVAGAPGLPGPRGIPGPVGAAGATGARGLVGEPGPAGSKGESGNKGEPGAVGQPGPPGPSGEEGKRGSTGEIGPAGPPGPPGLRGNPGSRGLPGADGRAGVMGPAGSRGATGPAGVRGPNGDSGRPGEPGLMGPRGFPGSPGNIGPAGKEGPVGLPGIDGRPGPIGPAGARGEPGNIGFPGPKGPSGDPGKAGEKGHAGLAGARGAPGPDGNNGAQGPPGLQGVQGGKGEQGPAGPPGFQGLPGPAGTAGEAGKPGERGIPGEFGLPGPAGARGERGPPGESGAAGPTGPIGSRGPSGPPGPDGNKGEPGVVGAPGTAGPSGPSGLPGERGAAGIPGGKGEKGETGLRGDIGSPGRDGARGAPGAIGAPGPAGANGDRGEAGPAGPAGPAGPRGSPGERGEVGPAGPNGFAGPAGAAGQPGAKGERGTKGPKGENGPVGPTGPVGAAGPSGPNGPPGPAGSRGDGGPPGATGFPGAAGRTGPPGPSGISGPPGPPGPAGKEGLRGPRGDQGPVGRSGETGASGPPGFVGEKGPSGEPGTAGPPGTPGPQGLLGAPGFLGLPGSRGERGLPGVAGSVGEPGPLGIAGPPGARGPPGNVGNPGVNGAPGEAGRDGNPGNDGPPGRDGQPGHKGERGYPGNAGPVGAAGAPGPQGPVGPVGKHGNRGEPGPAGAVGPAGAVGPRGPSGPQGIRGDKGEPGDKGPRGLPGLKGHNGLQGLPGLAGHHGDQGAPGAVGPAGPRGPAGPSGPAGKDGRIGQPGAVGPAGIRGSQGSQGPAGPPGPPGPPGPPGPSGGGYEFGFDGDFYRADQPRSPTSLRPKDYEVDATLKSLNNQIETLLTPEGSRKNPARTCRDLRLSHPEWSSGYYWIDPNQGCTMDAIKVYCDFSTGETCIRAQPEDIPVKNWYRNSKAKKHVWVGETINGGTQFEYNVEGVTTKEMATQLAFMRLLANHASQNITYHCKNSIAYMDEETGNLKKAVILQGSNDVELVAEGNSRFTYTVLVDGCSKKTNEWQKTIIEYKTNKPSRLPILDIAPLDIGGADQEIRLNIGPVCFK

How the values were obtained:
[1] = biological target: T1, collagen scaffold (bovine collagen type I) (bovine) (UniProt P02453+P02465); assay: agar diffusion assay, release of hβD2 from coated collagen scaffold
[2] = biological target: T1, collagen scaffold (bovine collagen type I) (bovine); assay: microdilution assay, release of hβD2 from coated collagen scaffolds (2, 4, 30, 125 µg)

With GIGDPVTCLKSGAICHPVFCPRRYKQIGTCGLPGTKCCKKP [human β-defensin-2] the binding [1] was “binds” and the binding [2] was “binds”.
